Test results published in the supplement of paper PMC3682954.
Values joined by “and” are separate entries in the source; they are usually repeats but may differ in a detail not shown here. Equal entries are not always repeated. Structures can show the parent of a compound that is named as a salt. ± gives the standard deviation of the averaged measurements. The list shows a part of the results. Repeats are few or missing, and single values can be far off.

Tested on: RAW 264.7
Assay: HMGB1-induced TNF-alpha production relative to HMGB1-stimulated control; higher = more TNF-alpha secretion (less inhibition)
Settings: stimulus: HMGB1 5 ug/ml, 18 h
[1] = compound concentration: 1 ug/ml

Row | SMILES | HMGB1-induced TNF-alpha production (compound concentration: 3 uM) | HMGB1-induced TNF-alpha production [1]
1 | O=C(O)C1CCCN(CCC=C(c2ccccc2)c2ccccc2)C1 (configuration not stated) | 100% | 
2 | Clc1ccc(CO/N=C(\Cn2ccnc2)c2ccc(Cl)cc2Cl)c(Cl)c1 [Oxiconazole Nitrate] | 74.1% | 
3 | Clc1ccc(CO/N=C(\Cn2ccnc2)c2ccc(Cl)cc2Cl)c(Cl)c1 [Oxiconazole] | 54.9% | 
4 | Clc1ccc(CO/N=C(\Cn2ccnc2)c2ccc(Cl)cc2Cl)c(Cl)c1 | 99.2 ± 1.9% | 
5 | CCCCC(CC)CCC(CC(C)C)OS(=O)(=O)O (configuration not stated) | 65.3% | 
6 | O=C(O)COCCN1CCN(C(c2ccccc2)c2ccc(Cl)cc2)CC1 (configuration not stated) [Cetirizine dihydrochloride] | 73.3 ± 16% | 
7 | O=C(O)COCCN1CCN(C(c2ccccc2)c2ccc(Cl)cc2)CC1 (configuration not stated) | 77.2% | 
8 | N[C@@H]1CONC1=O [D-Cycloserine] | 90.9% | 
9 | N[C@@H]1CONC1=O [D-cycloserine] | 129% | 
10 | OCC1OC(n2cnc3c(NC4CCCCC4)ncnc32)C(O)C1O (configuration not stated) [N6-Cyclohexyladenosine] | 81.9% | 
11 | N[C@@H](Cc1c[nH]c2ccc(O)cc12)C(=O)O [5-Hydroxy-L-tryptophan] | 96.6% | 
12 | N[C@@H](Cc1c[nH]c2ccc(O)cc12)C(=O)O [Oxitriptan; L-5-Hydroxytryptophan;] |  | 85.5%
13 | CCCCCCCCCCCCCCCC(=O)OC[C@@H](NC(=O)C(Cl)Cl)[C@H](O)c1ccc([N+](=O)[O-])cc1 | 84% | 
14 | CC(Cc1ccccc1)(NC(=O)CN)c1ccccc1 (racemic) | 101% | 
15 | COc1cc2nc(N(C)CCCNC(=O)C3CCCO3)nc(N)c2cc1OC (configuration not stated) [Alfuzosin hydrochloride] | 87.9 ± 2.6% | 
16 | COc1cc2nc(N(C)CCCNC(=O)C3CCCO3)nc(N)c2cc1OC (configuration not stated) | 114% and 105% | 
17 | Clc1ccc(Cn2c(CN3CCCC3)nc3ccccc32)cc1 | 80.6% | 
18 | Clc1ccc(Cn2c(CN3CCCC3)nc3ccccc32)cc1 [Clemizole hydrochloride] | 70.3 ± 3.8% | 
19 | O=C(O)/C=C/c1ccc(O)c(O)c1 [Caffeic acid] | 117% | 77.6%
20 | O=C(O)/C=C/c1ccc(O)c(O)c1 [Caffeic Acid] | 80.1% | 
21 | NCCCC(O)(P(=O)(O)O)P(=O)(O)O | 93.3 ± 5.2% | 
22 | NCCCC(O)(P(=O)(O)O)P(=O)(O)O [Alendronate] | 98.8% | 
23 | NCCCC(O)(P(=O)(O)O)P(=O)(O)O [Alendronate sodium] | 103% | 
24 | CNC[C@H](O)[C@@H](O)[C@H](O)[C@H](O)CO [Meglumine] | 106.1 ± 0.43% | 
25 | Nc1ccc(S(=O)(=O)Nc2cnc3ccccc3n2)cc1 | 79.5% | 
26 | Nc1ccc(S(=O)(=O)Nc2cnc3ccccc3n2)cc1 [Sulfaquinoxaline sodium salt] | 98.5% | 

Copied from the list:
Entry of Clc1ccc(CO/N=C(\Cn2ccnc2)c2ccc(Cl)cc2Cl)c(Cl)c1 [Oxiconazole Nitrate] under HMGB1-induced TNF-alpha production (compound concentration: 3 uM): 74.1%
Entry of Clc1ccc(Cn2c(CN3CCCC3)nc3ccccc32)cc1 [Clemizole hydrochloride] under HMGB1-induced TNF-alpha production (compound concentration: 3 uM): 70.3 ± 3.8%
